In publication PMC6203763:

Target: SIRT3, co-transfected with SHMT2
Experiment: co-IP; SIRT3 and SHMT2 plasmids co-transfected 24 h, then cells treated with the indicated glucose concentrations (glucose starvation); immunoprecipitation and blot

B1: SHMT2, co-transfected with SIRT3 (protein, UniProt P34897 30-504)
chain: NAAQTQTGEANRGWTGQESLSDSDPEMWELLQREKDRQCRGLELIASENFCSRAALEALGSCLNNKYSEGYPGKRYYGGAEVVDEIELLCQRRALEAFDLDPAQWGVNVQPYSGSPANLAVYTALLQPHDRIMGLDLPDGGHLTHGYMSDVKRISATSIFFESMPYKLNPKTGLIDYNQLALTARLFRPRLIIAGTSAYARLIDYARMREVCDEVKAHLLADMAHISGLVAAKVIPSPFKHADIVTTTTHKTLRGARSGLIFYRKGVKAVDPKTGREIPYTFEDRINFAVFPSLQGGPHNHAIAAVAVALKQACTPMFREYSLQVLKNARAMADALLERGYSLVSGGTDNHLVLVDLRPKGLDGARAERVLELVSITANKNTCPGDRSAITPGGLRLGAPALTSRQFREDDFRRVVDFIDEGVNIGLEVKSKTAKLQDFKSFLLKDSETSQRLANLRQRVEQFARAFPMPGFDEH
  binding: binds

No constants are given. Whether binding was seen depends on the method and setting. Binding seen in cells or lysates may run through a third protein. Binding calls can cover weak binding; strength is not graded here.
